Measured values: the supplement of paper PMC10849652
The other results are listed elsewhere or left out.

Amino acid sequences for entries named in this document (tags omitted). A change or cut given only in a name is not applied to a line headed by its entry.
UniProt Q96F46, whole entry, looked up: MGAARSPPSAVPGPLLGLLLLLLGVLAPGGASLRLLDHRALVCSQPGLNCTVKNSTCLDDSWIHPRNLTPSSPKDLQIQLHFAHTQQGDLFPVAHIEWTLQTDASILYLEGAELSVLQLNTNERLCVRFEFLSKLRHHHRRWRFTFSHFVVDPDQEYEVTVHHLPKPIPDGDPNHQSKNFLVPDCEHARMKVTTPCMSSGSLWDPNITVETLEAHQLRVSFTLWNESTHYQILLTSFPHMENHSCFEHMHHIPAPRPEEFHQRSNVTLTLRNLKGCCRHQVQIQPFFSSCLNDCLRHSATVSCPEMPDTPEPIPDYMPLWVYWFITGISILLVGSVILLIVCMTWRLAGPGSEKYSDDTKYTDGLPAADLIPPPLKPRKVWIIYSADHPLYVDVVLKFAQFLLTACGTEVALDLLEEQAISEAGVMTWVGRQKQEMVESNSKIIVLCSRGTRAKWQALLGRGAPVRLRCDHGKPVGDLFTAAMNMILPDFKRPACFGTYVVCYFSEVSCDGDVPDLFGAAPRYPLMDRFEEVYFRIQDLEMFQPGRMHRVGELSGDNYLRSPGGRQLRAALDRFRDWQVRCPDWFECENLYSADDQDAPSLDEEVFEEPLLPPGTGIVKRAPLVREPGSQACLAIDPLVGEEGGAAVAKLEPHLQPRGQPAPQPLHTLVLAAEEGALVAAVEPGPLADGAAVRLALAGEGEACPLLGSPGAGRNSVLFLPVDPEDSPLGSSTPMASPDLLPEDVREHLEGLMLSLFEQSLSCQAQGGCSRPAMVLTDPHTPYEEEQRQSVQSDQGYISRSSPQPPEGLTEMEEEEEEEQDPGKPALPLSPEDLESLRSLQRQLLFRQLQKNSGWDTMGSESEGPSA
UniProt Q9NRY2: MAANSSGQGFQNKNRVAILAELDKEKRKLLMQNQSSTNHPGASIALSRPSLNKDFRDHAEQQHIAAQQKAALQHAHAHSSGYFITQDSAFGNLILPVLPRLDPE
UniProt Q9NXR8, whole entry, looked up: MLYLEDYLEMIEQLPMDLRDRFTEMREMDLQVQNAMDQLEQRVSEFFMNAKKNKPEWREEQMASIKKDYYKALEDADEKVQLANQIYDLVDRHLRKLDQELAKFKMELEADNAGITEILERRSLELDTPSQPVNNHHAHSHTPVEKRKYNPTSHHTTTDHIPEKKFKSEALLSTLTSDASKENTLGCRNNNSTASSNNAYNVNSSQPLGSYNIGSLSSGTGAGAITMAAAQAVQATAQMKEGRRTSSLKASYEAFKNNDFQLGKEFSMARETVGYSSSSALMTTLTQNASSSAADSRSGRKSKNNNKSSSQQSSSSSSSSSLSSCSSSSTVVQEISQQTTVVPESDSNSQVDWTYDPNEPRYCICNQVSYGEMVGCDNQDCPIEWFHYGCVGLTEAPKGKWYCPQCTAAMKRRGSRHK
IGKV3D-11, A0A0A0MRZ8, UniProt A0A0A0MRZ8, whole entry, looked up: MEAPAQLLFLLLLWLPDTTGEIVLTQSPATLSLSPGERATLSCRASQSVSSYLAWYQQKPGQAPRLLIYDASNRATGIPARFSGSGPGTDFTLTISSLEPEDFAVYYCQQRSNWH
UniProt Q12906, whole entry, looked up: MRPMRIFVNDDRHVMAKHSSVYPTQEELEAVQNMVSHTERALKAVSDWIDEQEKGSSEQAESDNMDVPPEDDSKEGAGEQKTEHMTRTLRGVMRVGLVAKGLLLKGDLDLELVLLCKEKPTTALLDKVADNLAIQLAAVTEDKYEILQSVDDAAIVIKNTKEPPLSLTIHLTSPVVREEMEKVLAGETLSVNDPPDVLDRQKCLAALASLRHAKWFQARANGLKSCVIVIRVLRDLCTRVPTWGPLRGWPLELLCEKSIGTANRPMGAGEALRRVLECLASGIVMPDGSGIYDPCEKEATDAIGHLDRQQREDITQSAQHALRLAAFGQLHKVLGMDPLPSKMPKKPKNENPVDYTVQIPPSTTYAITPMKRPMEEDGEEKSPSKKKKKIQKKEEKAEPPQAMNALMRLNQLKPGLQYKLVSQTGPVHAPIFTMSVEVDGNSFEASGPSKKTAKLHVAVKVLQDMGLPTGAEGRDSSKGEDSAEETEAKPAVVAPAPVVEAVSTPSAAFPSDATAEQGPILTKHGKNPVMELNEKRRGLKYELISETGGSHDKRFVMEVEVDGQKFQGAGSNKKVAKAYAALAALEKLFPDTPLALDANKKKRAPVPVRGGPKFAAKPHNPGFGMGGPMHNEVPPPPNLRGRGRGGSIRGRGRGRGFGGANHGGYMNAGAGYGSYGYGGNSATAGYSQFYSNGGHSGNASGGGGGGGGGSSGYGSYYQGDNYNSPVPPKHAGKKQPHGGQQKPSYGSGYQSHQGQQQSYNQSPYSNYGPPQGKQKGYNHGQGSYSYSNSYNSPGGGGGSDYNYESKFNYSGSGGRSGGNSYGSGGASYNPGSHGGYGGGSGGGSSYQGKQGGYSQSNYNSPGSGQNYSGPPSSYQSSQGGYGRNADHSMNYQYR
UniProt Q8N6C5: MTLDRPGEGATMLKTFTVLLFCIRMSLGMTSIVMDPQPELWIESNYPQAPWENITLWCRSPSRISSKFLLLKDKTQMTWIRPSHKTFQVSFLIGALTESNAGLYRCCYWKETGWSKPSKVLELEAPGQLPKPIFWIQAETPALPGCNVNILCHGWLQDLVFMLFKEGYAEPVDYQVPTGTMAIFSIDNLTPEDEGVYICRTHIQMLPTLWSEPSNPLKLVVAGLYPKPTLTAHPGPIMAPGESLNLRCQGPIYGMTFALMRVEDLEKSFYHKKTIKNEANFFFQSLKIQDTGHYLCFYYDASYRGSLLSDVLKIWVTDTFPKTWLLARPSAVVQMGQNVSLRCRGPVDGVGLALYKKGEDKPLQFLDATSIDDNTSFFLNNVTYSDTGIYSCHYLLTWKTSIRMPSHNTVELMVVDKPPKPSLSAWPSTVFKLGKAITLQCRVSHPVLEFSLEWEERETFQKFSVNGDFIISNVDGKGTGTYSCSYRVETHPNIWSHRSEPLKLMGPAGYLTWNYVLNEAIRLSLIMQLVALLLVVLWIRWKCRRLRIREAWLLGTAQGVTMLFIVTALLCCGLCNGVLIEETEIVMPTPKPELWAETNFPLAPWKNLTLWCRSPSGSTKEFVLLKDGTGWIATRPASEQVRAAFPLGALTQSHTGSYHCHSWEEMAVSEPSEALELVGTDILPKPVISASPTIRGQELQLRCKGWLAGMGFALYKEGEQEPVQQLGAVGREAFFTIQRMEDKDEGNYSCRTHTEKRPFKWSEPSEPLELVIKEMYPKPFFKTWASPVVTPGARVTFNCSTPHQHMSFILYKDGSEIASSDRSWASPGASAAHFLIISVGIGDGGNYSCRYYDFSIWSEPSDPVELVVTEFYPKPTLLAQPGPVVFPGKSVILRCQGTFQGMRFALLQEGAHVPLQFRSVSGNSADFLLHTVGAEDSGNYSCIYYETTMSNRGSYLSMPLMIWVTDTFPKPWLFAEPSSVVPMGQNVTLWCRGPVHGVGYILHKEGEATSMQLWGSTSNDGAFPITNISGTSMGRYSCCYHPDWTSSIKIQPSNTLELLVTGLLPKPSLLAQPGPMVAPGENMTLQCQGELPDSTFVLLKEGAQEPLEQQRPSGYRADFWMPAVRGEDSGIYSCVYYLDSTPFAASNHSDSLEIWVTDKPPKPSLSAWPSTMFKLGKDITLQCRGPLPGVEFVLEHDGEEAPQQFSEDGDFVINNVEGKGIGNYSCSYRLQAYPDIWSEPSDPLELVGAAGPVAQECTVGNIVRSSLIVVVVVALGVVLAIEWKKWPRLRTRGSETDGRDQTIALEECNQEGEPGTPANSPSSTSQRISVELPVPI
UniProt P31785: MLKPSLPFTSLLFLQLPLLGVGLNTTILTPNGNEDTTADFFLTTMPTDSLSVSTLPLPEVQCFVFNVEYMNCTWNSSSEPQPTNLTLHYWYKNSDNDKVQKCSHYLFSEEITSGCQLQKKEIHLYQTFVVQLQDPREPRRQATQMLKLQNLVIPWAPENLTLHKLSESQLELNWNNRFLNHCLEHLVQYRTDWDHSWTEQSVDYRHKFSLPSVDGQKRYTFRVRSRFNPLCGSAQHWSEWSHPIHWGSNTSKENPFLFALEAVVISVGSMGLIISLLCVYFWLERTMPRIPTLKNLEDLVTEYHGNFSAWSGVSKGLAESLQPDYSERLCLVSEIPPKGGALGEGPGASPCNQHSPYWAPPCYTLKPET
UniProt P19827: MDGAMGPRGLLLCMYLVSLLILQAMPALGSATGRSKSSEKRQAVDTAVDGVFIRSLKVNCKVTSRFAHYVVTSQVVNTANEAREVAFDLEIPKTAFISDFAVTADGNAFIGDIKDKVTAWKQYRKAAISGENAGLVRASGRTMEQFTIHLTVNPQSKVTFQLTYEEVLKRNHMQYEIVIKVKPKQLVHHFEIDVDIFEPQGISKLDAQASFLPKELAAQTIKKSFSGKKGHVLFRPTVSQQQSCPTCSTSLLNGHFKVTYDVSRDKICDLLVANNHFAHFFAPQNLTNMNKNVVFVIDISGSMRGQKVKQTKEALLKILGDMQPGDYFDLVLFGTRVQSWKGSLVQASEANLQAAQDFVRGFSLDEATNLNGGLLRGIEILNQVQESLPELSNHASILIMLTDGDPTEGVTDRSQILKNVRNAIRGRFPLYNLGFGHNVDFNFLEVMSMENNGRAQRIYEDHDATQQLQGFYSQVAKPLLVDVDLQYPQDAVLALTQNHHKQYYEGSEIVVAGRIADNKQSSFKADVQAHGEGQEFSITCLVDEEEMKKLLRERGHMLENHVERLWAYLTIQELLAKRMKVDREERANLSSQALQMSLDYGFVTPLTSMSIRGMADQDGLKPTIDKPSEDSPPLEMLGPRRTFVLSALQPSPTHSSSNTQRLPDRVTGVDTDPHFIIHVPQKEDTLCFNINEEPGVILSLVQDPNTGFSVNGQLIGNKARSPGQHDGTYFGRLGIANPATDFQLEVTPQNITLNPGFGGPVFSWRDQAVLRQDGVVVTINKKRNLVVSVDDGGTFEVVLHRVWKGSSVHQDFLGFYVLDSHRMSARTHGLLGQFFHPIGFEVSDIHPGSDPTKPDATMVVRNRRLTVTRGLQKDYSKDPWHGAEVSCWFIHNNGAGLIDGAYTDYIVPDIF
UniProt P50213: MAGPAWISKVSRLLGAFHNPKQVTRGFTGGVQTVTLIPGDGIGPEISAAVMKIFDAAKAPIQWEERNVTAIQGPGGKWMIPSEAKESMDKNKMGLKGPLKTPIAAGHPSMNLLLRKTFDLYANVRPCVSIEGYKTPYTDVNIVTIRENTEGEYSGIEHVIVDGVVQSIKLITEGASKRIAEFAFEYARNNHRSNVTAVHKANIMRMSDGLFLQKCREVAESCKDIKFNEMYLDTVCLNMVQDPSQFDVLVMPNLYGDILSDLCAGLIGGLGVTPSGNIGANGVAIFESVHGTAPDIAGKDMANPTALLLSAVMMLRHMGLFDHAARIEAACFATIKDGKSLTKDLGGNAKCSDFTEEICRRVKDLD
UniProt Q9NQS7, whole entry, looked up: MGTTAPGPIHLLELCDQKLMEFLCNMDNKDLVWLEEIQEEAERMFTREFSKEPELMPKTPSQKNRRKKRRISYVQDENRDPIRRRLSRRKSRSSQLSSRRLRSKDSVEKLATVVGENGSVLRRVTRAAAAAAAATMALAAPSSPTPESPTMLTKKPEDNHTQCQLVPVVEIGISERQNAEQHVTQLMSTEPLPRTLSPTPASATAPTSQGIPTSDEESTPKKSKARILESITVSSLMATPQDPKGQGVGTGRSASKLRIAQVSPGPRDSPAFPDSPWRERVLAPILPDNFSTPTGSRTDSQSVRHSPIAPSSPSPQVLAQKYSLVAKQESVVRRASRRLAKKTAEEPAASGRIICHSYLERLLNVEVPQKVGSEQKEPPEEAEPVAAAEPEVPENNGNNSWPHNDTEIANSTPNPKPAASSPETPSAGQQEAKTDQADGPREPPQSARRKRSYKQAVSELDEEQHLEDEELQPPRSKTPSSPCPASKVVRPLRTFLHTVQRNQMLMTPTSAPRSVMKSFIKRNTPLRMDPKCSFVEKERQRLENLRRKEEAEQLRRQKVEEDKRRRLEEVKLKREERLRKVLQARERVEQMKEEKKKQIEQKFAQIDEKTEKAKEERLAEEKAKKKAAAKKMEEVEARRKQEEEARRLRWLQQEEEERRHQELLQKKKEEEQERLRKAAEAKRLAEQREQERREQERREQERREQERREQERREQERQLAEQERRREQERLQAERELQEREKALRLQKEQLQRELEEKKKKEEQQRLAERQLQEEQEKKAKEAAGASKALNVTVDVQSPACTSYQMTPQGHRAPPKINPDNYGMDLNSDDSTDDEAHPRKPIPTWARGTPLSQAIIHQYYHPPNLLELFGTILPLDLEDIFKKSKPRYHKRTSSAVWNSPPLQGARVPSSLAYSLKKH
UniProt P24593, whole entry, looked up: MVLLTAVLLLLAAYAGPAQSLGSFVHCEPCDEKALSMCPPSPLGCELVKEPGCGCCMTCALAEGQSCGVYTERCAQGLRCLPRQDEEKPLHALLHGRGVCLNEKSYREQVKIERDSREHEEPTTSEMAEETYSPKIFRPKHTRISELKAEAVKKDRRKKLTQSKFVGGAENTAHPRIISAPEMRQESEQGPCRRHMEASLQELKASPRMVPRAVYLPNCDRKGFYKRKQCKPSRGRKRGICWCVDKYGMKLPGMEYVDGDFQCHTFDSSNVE

Experiments:
Test in all cases: log2 fold change, soluble protein after heating vs DMSO (PISA); higher = thermal stabilisation; K562 cells, 10 uM, 30 min; active = over 0.2 and 3.5 SD of the protein, either way, in both replicates (recomputed)
[1] = compound: CN1CCN(c2nc(C3=C(c4c[nH]c5ccccc45)C(=O)NC3=O)c3ccccc3n2)CC1 [sotrastaurin]
Summary of the method: (§1)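 K562 cells (2×10^6 cells/mL) were treated with 10 μM compound for 30 min, and aliquots were heated for 3 min over 48°C-58°C. Pooled aliquots were extracted in PBS with 0.5% NP-40 at 4°C, and the supernatant after 21,000xg for 90 min was measured by TMTpro 16plex LC-MS/MS with channel sums equalised. Reported thermal stability, relative to control samples and from duplicates, is a log2 fold change.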

[2] = compound: CN1CCc2c(c3ccccc3n2Cc2ccc(C(=O)NO)cc2)C1 [Tubastatin A]
Summary of the method: as §1

[3] = compound: CON(C)C(=O)N1N=C(c2cc(F)ccc2F)S[C@@]1(CCCN)c1ccccc1 [filanesib]
Summary of the method: as §1

[4] = compound: COc1cc(C(=O)O)ccc1NC(=O)[C@@H]1N[C@@H](CC(C)(C)C)[C@](C#N)(c2ccc(Cl)cc2F)[C@H]1c1cccc(Cl)c1F [idasanutlin]
Summary of the method: as §1

[5] = compound: COc1cc(Nc2ncc3c(n2)-c2ccc(Cl)cc2C(c2c(F)cccc2OC)=NC3)ccc1C(=O)O [alisertib]
Summary of the method: as §1

[6] = compound: COc1cccc2cc(-c3nc([C@H]4CC[C@H](C(=O)O)CC4)n4ncnc(N)c34)[nH]c12
Summary of the method: as §1

[7] = compound: CNC(=O)C1=CC=CC=C1NC2=NC(=NC=C2Cl)NC3=C(C=C(C=C3)N4CCOCC4)OC
Summary of the method: as §1

[8] = compound: CNC(=O)c1ccc(Nc2ncc(C(F)(F)F)c(NCc3nccnc3N(C)S(C)(=O)=O)n2)cc1 [defactinib]
Summary of the method: as §1

[9] = compound: COC(=O)[C@H](CCSC)NC(=O)C1=C(C=C(C=C1)NC[C@H](CS)N)C2=CC=CC=C2
Summary of the method: as §1

[10] = compound: COC1=CC=C(C=C1)CN2C=CC3=C2C=C(C=C3)C(=O)NO
Summary of the method: as §1

[11] = compound: COc1cc2nc(-c3cc(F)ccc3O)nc(N[C@@H]3CNC[C@H]3C(C)(C)O)c2cc1OC
Summary of the method: as §1

[12] = compound: COc1cc2ncnc(Nc3ccc(F)c(Cl)c3)c2cc1OCCCN1CCOCC1 [gefitinib]
Summary of the method: as §1

[13] = compound: CS(=O)(=O)CCNCc1ccc(-c2ccc3ncnc(Nc4ccc(OCc5cccc(F)c5)c(Cl)c4)c3c2)o1 [lapatinib]
Summary of the method: as §1

[14] = compound: CS(=O)(=O)N1CCN(Cc2cc3nc(-c4cccc5[nH]ncc45)nc(N4CCOCC4)c3s2)CC1 [pictilisib]
Summary of the method: as §1

[15] = compound: CNCc1ccc(-c2[nH]c3cc(F)cc4c3c2CCNC4=O)cc1 [rucaparib]
Summary of the method: as §1

[16] = compound: COC(=O)N[C@@H](C)CNc1nccc(-c2cn(C(C)C)nc2-c2cc(Cl)cc(NS(C)(=O)=O)c2F)n1 [encorafenib]
Summary of the method: as §1

[17] = compound: CO[C@H]1C[C@@H]2CC[C@@H](C)[C@@](O)(O2)C(=O)C(=O)N2CCCC[C@H]2C(=O)O[C@H]([C@H](C)C[C@@H]2CC[C@H](n3cnnn3)[C@H](OC)C2)CC(=O)[C@H](C)/C=C(\C)[C@@H](O)[C@@H](OC)C(=O)[C@H](C)C[C@H](C)/C=C/C=C/C=C/1C [zotarolimus]
Summary of the method: as §1

[18] = compound: CN1CC[C@H](c2c(O)cc(O)c3c(=O)cc(-c4ccccc4Cl)oc23)[C@H](O)C1 [alvocidib]
Summary of the method: as §1

Measured: log2 fold change

IL17RA (UniProt Q96F46)
inactive: [1] 0.196 | [2] -0.056 | [3] 0.024 | [4] 0.07 | [5] -0.069 | [6] -0.528

IMPDH2 (UniProt H0Y4R1)
inactive: [2] 0.144 | [7] 0.04 | [8] 0.004 | [9] -0.009 | [10] 0.061 | [4] -0.239 | [5] 0.16 | [11] -0.15 | [12] 0.016 | [6] -0.003 | [13] 0.091 | [14] -0.1

IRAK1 (UniProt P51617)
inactive: [1] -0.122 | [7] 0.023 | [15] 0.362 | [16] 0.11 | [10] -0.06 | [3] 0.171 | [5] -0.169 | [12] -0.027 | [6] -0.097 | [14] -0.094

IKZF1 isoform 2 (UniProt Q13422)
inactive: [1] 0.049 | [2] -0.123 | [7] 0.05 | [8] -0.106 | [9] -0.02 | [3] -0.075 | [17] 0.1 | [5] 0.079 | [12] -0.044 | [6] -0.031

INIP (UniProt Q9NRY2)
inactive: [1] 0.035 | [8] -0.073 | [15] -0.142 | [16] -0.031 | [9] -0.022 | [3] 0.14 | [5] -0.076 | [11] -0.275 | [12] 0.077 | [6] 0.109 | [13] -0.072

ING3 (UniProt Q9NXR8)
inactive: [15] -0.105 | [16] -0.027 | [14] -0.148

ISL2 (UniProt Q96A47)
inactive: [18] 0.003 | [15] 0.147 | [16] 0.029 | [10] -0.305 | [17] 0.118 | [4] 0.015 | [14] -0.086

2 neighbouring records out of the list so far, quoted:
IL17RA (UniProt Q96F46)
inactive: [1] 0.196 | [2] -0.056 | [3] 0.024 | [4] 0.07 | [5] -0.069 | [6] -0.528

IMPDH2 (UniProt H0Y4R1)
inactive: [2] 0.144 | [7] 0.04 | [8] 0.004 | [9] -0.009 | [10] 0.061 | [4] -0.239 | [5] 0.16 | [11] -0.15 | [12] 0.016 | [6] -0.003 | [13] 0.091 | [14] -0.1

Next entries:

IGKV3D-11, A0A0A0MRZ8
inactive: [12] 0.157

IDS (UniProt P22304)
inactive: [11] 0.198 | [13] -0.001 | [14] -0.012

ILF3 (UniProt Q12906)
inactive: [1] 0.009 | [15] 0.384 | [16] 0.081 | [10] 0.033 | [3] 0.156 | [5] -0.203 | [12] -0.13 | [6] 0.045

IGKC (UniProt P01834)
inactive: [1] -0.123 | [2] 0.013 | [7] -0.198 | [8] 0.109 | [15] 0.012 | [16] -0.121 | [9] -0.001 | [10] 0.489 | [3] 0.641 | [4] 0.211 | [5] 0.434 | [12] 0.07 | [6] -0.111

IGSF1 isoform 4 (UniProt Q8N6C5)
inactive: [15] 0 | [16] 0.005 | [4] -0.18 | [5] 0.171 | [11] 0.077 | [6] 0.113 | [13] -0.01

IL2RG (UniProt P31785)
inactive: [18] 0.091 | [2] -0.011 | [8] 0.023 | [9] 0.039 | [17] -0.267 | [12] 0.123 | [14] 0.035

IDUA (UniProt P35475)
inactive: [5] 0.259 | [11] -0.001 | [6] -0.034 | [13] -0.017 | [14] 0.029

ITIH1 (UniProt P19827)
inactive: [7] 0.05 | [15] -0.017 | [16] 0.034 | [4] 0.034 | [5] 0.491 | [6] 0.22

ITGB3BP isoform 5 (UniProt Q13352)
inactive: [7] -0.045 | [12] -0.143

ITPR1 (UniProt Q14643)
inactive: [18] -0.011 | [7] -0.003 | [10] 0.167 | [17] 0.146

IGLL5 (UniProt B9A064)
inactive: [1] 0.123 | [2] 0.019 | [15] -0.304 | [16] -0.073 | [10] 0.37 | [3] 0.202 | [5] 0.017 | [11] -0.046 | [12] 0.252 | [6] 0.169 | [13] 0.016 | [14] -0.011

ITPR3 (UniProt Q14573)
inactive: [18] -0.045 | [8] 0 | [15] -0.003 | [16] -0.134 | [9] 0.213 | [10] 0.059 | [17] -0.02

IDH3A isoform 2 (UniProt P50213)
inactive: [2] 0.138 | [7] -0.117 | [10] 0.32 | [17] -0.056 | [4] -0.246 | [12] 0.029

IQSEC1 (UniProt Q6DN90)
inactive: [1] 0.057 | [3] 0.015

IPP (UniProt Q9Y573)
inactive: [4] 0.051

INCENP (UniProt Q9NQS7)
inactive: [10] -0.14

ING5 (UniProt Q8WYH8)
inactive: [2] 0.192 | [7] -0.147 | [15] 0.129 | [16] -0.078 | [10] 0.208 | [17] 0.014 | [5] 0.003 | [11] 0.127 | [6] 0.179 | [13] -0.128

INHBE (UniProt P58166)
inactive: [1] 0.097 | [7] 0 | [8] 0.11 | [15] -0.239 | [16] 0.105 | [9] 0.077 | [3] 0.196 | [5] -0.037 | [6] -0.035

IGFBP5 (UniProt P24593)
inactive: [1] 0.228 | [2] -0.183 | [7] -0.032 | [8] 0.249 | [9] 0.065 | [3] -0.141 | [5] 0.052 | [6] 0.035

ITPRID2 (UniProt P28290)
inactive: [7] -0.299 | [8] -0.158 | [15] -0.019 | [16] -0.087 | [9] 0.059 | [10] 0 | [11] 0.141 | [13] -0.141
